Paper doi:10.1101/2022.11.15.516593
These are yes or no findings as the source states them, for the method shown. A result given as binding can be weak or reduced; the word gives no strength. Where a sequence is shown, tags or fusion partners need not be part of it. For some assays here: In cells and extracts the contact can be indirect.

Chains of the proteins cited; added tags and fusions are not shown. Lines headed by an entry give the natural chain unless they say otherwise; changes in a name come on top.
UniProt Q9M9N3: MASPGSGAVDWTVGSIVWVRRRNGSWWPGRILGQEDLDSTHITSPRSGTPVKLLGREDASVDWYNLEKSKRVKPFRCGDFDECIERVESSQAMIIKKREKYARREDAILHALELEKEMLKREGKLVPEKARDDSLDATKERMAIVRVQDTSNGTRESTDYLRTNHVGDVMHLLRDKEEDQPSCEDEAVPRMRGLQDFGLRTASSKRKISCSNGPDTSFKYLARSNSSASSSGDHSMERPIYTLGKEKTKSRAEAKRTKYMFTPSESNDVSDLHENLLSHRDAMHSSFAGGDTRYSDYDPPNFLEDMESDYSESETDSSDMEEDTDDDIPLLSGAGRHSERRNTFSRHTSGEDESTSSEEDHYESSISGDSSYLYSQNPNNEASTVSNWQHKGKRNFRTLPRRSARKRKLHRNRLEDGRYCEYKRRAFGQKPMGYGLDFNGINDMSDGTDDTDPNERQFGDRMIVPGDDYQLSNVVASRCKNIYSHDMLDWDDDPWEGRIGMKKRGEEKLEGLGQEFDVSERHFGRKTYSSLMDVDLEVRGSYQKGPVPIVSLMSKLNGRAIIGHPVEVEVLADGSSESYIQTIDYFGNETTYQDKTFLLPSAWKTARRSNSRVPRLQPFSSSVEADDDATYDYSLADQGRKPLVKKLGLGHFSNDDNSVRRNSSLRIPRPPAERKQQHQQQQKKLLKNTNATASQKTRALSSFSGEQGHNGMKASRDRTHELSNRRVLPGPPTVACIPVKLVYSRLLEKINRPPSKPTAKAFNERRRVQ

B1: UBIQUITIN SPECIFIC PROTEASE 5 (UBP5), fluorescent-protein fusion used for FRET-APB (enzyme, UniProt O22207 1-924)
chain: MAEVSMGSSSSSTDLSPEEERVFIRDIAIAAEANSKEGDTFYLITQRWWQEWIEYVNQDQPCNTNDGSSLSEHCDSPGSSTLKKPSRIDNSDLIYDSSLEDPSNTSEIIETLQEGRDYVLLPQEVWNQLRSWYGGGPTLARRVISSGLSQTELAVEVYPLRLQLLLMPKSDHSAIRISKKETIRELHRRACEIFDLDSEHVRIWDYYGHQKYSLMNDLDKTLDDANLQMDQDILVEVLDINGTLSSAHIQSAQENGLVDGDSTSILIEPSKSSLAAAGGFSSSRNAFRTGSVEVSQSFDNTYSSTGVTTRGSTAGLTGLLNLGNTCFMNSAIQCLVHTPEFASYFQEDYHQEINWQNPLGMVGELALAFGDLLRKLWAPGRTPIAPRPFKAKLARFAPQFSGYNQHDSQELLAFLLDGLHEDLNRVKHKPYINSRDADGRPDEEVADEFWKNHIARNDSIIVDVCQGQYKSTLVCPICNKVSVTFDPFMYLSLPLQFNTTRAITVTVFSCDKTALPSTITVNVSKQGRCRDLIQALTNACSLKQSEELKLAEIRNNFIHRLFEDPLIPLSSIKDDDHLAAYKLSKSSENTTLLRLVLRRRDQKAGERESTVQLKPCGTPLLSSASCGDALTKGKIHCLVQNMLSPFRREESVGKKGNSDSSIPERRSARFNNTEEEDKVGGLKKAKKSNSSDLGASKLSLQLIDEDNKTINLPDNEAEAMKLPSSATVTIYLDWTPELSGMYDITCLESLPEVLKYGPTTKKARSEPLSLYACLEAFLREEPLVPDEMWFCPQCNERRQASKKLDLWRLPEVLVIHLKRFSYSRSMKHKLETFVNFPIHDLDLTKYVANKNLSQPQLYELYALTNHYGGMGSGHYTAHIKLLDDSRWYNFDDSHISHINEDDVKSGAAYVLFYRRKSDAGGKMT
B2: UBIQUITIN SPECIFIC PROTEASE 5 (UBP5), yeast two-hybrid fusion (enzyme, UniProt O22207 1-924)
chain: B1 chain

Assays:
[1] = biological target: PWWP-DOMAIN INTERACTOR OF POLYCOMBS1 (PWO1), fluorescent-protein fusion used for FRET-APB (Arabidopsis thaliana) (UniProt Q9M9N3); assay: FRET or BRET
[2] = biological target: PWWP-DOMAIN INTERACTOR OF POLYCOMBS1 (PWO1), yeast two-hybrid fusion (Arabidopsis thaliana); assay: two-hybrid

Binder | binding [1] | binding [2]
B1 | binds | 
B2 |  | binds
